Experimental data reported in the supplement of paper PMC7877785.
± gives the uncertainty stated by the source. Many of these values have a large error.

Test: self-splicing fitness, log relative to wild type (ln ratio); higher = more splicing; Tetrahymena group I intron in knt gene, E. coli kanamycin selection, DiMSum; sequences stand for … in CUCUCU…GGAGGGAAAAGUUAUCAGGCAUGCACCUGGUAGCUAGUCUUUAAACCAAUAGAUUGCAUCGGUUUAAAAGGCAAGACCGUCAAAUUGCGGGAAAGGGGUCAACAGCCGUUCAGUACCAAGUCUCAGGGGAAACUUUGAGAUGGCCUUGCAAAGGGUAUGGUAAUAAGCUGACGGACAUGGUCCUAACCACGCAGCCAAGUCCUAAGUCAACAGAUCUUCUGUUGAUAUGGAUGCAGUUCACAGACUAAAUGUCGGUCGGGGAAGAUGUAUUCUUCUCAUAAGAUAUAGUCGGACCUCUCCUUAAUGGGAGCUAGCGGAUGAAGUGAUGCAACACUGGAGCCGCUGGGAACUAAUUUGUAUGCGAAAGUAUAUUGAUUAGUUUUGGAGUACUCGUGGUCG
In short: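 The eight P1ex-region nucleotides of an intron in the knt kanamycin-resistance gene on pET-22b(+) were all randomised and the library put into E. coli BL21(DE3). Six replicate transformations were grown overnight at 37°C or 30°C on LB agar with or without 25 μg/mL kanamycin, together with 100 μg/mL carbenicillin, 50 μM IPTG and 0.2% rhamnose. Colonies were pooled and amplicon-sequenced on an Illumina HiSeq 2500. Fitness from DiMSum is the error-weighted combination of wild-type-normalised replicate fold changes, kanamycin over none.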

Sequence | self-splicing fitness (ln) (30 °C) | self-splicing fitness (ln) (37 °C)
GUGAAGCAAUAUUACGAAGC | -2.06 ± 0.08 | -1.06 ± 0.11
UACGAGCAAUAUUACGCGAC | -2.74 ± 0.58 | –
UAUCAGCAAUAUUACGUUUA | -0.174 ± 0.055 | -0.0219 ± 0.069
GCGGAGCAAUAUUACGUGAA | -3.19 ± 0.58 | -2.62 ± 0.61
CCCUAGCAAUAUUACGGACU | -3.48 ± 0.3 | -2 ± 0.32
AAGGAGCAAUAUUACGUAGU | -5.31 ± 1 | –
AGUUAGCAAUAUUACGCUGC | -4.04 ± 1 | -2.91 ± 0.53
GUCGAGCAAUAUUACGAGAC | -0.29 ± 0.8 | –
UCAGAGCAAUAUUACGCGCU | -4.17 ± 0.72 | –
UGAAAGCAAUAUUACGAGUU | -3.31 ± 0.15 | -0.915 ± 0.095
AACUAGCAAUAUUACGGGUA | -0.761 ± 0.072 | -0.0817 ± 0.07
AAAGAGCAAUAUUACGCUAA | -1.74 ± 0.84 | –
AGGGAGCAAUAUUACGUCAG | -4.08 ± 0.51 | –
AACUAGCAAUAUUACGUGCA | -0.72 ± 0.054 | -0.578 ± 0.065
CAGGAGCAAUAUUACGUCGA | -3.23 ± 1 | -1.96 ± 0.65
CGGUAGCAAUAUUACGGGAU | – | -3.12 ± 0.74
GCGUAGCAAUAUUACGCAUG | -4.34 ± 0.52 | –
CACGAGCAAUAUUACGCCUA | -2.71 ± 1.1 | –
CGUGAGCAAUAUUACGAAGC | -3.23 ± 1 | -2.03 ± 0.77
GACCAGCAAUAUUACGAUAA | -1.53 ± 0.094 | -1.13 ± 0.1
AGCAAGCAAUAUUACGGCGA | -0.386 ± 0.094 | -0.039 ± 0.11
GAAUAGCAAUAUUACGGGCG | -1.16 ± 0.078 | -0.509 ± 0.1
GCGGAGCAAUAUUACGCCUU | -0.631 ± 1.2 | –
GUGUAGCAAUAUUACGCACC | -1.88 ± 0.8 | –
UCGGAGCAAUAUUACGGGGC | -4.13 ± 0.74 | -2.08 ± 0.79

Sequence | self-splicing fitness (ln) (30 °C) | self-splicing fitness (ln) (37 °C)
AUACAGCAAUAUUACGCUGU | -4.13 ± 0.36 | -3.51 ± 0.33
UGCCAGCAAUAUUACGACAG | -1.31 ± 0.1 | -0.406 ± 0.12
CAGGAGCAAUAUUACGGUAC | -3.14 ± 0.64 | -1.13 ± 1.2
AUAGAGCAAUAUUACGAAGG | -3.04 ± 0.55 | –
GAAGAGCAAUAUUACGAGGC | -3.29 ± 0.54 | -1.8 ± 0.41
CGACAGCAAUAUUACGCUCU | -1.69 ± 0.11 | -0.145 ± 0.11
UUGGAGCAAUAUUACGGCGU | -3.5 ± 0.6 | –
CUUCAGCAAUAUUACGUUUA | -3.96 ± 0.3 | -2.49 ± 0.23
CCAUAGCAAUAUUACGACCC | -4.32 ± 1 | –
GGGGAGCAAUAUUACGUCUG | -2.55 ± 0.37 | -1.24 ± 0.24
UAGGAGCAAUAUUACGCUCA | -1.55 ± 0.19 | -1.37 ± 0.16
CGUGAGCAAUAUUACGCAGA | -1.55 ± 0.84 | –
AUUAAGCAAUAUUACGAUCC | -0.418 ± 0.11 | -0.106 ± 0.19
UCUCAGCAAUAUUACGCCUG | -3.14 ± 0.56 | –
AGUGAGCAAUAUUACGAAAU | -3.07 ± 0.61 | –
GGCGAGCAAUAUUACGGCCU | – | -1.65 ± 0.55
UUUGAGCAAUAUUACGUUUC | -4.01 ± 0.53 | –
CUUAAGCAAUAUUACGAAUU | -3.26 ± 0.22 | -0.957 ± 0.17
CCGCAGCAAUAUUACGACCC | -2.78 ± 0.56 | -1.18 ± 0.57
CAGAAGCAAUAUUACGCCGC | – | -2.5 ± 0.63
UGAGAGCAAUAUUACGCCGG | – | -3.26 ± 0.73
GGUGAGCAAUAUUACGCCUA | – | -0.997 ± 0.5
GUCGAGCAAUAUUACGUCAG | -3.08 ± 0.16 | -2.98 ± 0.19
UCGGAGCAAUAUUACGUAAU | -3.05 ± 0.62 | –
AACGAGCAAUAUUACGGUAC | -4.66 ± 0.51 | –

Single values from the entries so far.
self-splicing fitness (ln) (30 °C) with AUAGAGCAAUAUUACGAAGG reads -3.04 ± 0.55
self-splicing fitness (ln) (30 °C) with UCUCAGCAAUAUUACGCCUG reads -3.14 ± 0.56
